These results are taken from PMC10407929.

Amino acid sequences for entries named in this document (tags omitted).
UniProt P08047, whole entry: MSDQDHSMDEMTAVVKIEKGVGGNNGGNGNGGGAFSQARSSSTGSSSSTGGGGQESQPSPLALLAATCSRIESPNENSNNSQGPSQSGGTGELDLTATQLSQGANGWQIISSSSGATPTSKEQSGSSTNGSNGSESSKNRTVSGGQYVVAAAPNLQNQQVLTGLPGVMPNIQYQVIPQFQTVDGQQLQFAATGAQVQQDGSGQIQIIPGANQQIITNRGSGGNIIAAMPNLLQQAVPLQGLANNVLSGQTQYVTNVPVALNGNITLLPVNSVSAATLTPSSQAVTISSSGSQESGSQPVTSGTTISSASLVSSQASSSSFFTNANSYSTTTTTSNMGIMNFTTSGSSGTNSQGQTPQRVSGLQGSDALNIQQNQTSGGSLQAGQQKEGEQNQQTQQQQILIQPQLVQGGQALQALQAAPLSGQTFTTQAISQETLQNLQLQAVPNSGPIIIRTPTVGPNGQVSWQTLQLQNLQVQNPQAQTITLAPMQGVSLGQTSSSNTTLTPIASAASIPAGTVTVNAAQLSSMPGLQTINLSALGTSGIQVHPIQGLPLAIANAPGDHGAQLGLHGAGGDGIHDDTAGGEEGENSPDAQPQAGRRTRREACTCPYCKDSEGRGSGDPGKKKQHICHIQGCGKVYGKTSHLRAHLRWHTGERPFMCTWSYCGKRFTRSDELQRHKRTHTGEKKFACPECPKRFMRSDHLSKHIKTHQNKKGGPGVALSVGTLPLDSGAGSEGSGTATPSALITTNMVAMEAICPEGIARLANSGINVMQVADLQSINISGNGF

Assay in all cases: pull-down
One data set deals with T1, BEND3 (Homo sapiens) (UniProt Q5T5X7).
T1 sequence (looked up, limits assumed): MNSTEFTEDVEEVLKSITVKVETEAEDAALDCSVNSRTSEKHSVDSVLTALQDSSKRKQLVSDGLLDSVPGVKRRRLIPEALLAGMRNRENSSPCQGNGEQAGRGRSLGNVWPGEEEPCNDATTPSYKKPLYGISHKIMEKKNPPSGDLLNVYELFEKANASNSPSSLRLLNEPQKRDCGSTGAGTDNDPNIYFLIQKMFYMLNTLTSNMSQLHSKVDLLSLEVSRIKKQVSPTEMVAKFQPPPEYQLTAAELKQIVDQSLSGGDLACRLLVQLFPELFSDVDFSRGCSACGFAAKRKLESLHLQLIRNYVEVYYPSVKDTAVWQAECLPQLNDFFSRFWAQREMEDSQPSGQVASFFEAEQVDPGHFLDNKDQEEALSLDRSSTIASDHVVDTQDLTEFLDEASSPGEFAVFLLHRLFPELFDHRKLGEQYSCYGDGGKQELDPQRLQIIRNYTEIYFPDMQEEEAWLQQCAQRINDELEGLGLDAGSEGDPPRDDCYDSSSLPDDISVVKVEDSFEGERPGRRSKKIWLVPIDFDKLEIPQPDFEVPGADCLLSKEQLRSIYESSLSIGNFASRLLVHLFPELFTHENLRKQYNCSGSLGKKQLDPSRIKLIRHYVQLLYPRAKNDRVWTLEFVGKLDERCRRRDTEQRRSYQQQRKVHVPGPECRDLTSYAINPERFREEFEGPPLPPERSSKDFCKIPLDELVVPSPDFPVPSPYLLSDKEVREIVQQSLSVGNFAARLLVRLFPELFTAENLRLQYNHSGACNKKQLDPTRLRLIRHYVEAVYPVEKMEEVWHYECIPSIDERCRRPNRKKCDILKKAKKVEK
To be noted: 150 mM NaCl, 50 mM Tris pH 8.0, 0.25% NP-40, 1 mM DTT, 4 C, 2 h, 100 ug nuclear extract, label: 5' biotin (strand 1).

The target in the next data set is T2, BANP (Homo sapiens) (UniProt Q8N9N5).
T2 sequence (looked up, limits assumed): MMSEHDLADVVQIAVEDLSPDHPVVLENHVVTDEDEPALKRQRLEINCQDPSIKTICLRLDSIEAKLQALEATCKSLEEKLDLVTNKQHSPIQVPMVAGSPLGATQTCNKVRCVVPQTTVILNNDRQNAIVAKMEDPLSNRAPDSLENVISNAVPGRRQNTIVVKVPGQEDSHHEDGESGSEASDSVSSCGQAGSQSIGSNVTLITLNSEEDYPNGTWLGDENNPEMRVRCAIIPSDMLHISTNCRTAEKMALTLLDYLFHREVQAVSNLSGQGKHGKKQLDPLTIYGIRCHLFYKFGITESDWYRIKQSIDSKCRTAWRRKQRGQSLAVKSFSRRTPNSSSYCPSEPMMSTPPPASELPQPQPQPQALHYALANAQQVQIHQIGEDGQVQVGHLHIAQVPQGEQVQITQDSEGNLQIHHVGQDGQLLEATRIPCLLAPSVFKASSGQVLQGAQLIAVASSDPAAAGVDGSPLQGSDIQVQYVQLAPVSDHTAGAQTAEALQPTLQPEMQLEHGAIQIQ
To be noted: 150 mM NaCl, 50 mM Tris pH 8.0, 0.25% NP-40, 1 mM DTT, 4 C, 2 h, 100 ug nuclear extract, label: 5' biotin (strand 1).

A further data set addresses SP1 (Homo sapiens) (UniProt P08047). To be noted: 150 mM NaCl, 50 mM Tris pH 8.0, 0.25% NP-40, 1 mM DTT; 4 C, 2 h; 100 ug nuclear extract; protein in an extract; label: 5' biotin (strand 1); variant of SP/KLF bait.
Setting [1] is: 5mC at 16,18 (strand 1), 5mC at 11,13 (strand 2), protein in an …, variant of BEND3 bait.
Where [2] appears, read: protein in an extract, variant of CGCG bait.
[3] abbreviates: 5mC at 15,17 (strand 1), 5mC at 14,16 (strand 2), protein in an …, variant of CGCG bait.
Where [4] appears, read: protein in an extract, variant of BEND3 bait.

Where cells or extracts were used, other partners may take part. A negative result means that nothing was seen under these conditions. For some assays here: Tags and fusion partners may be left off the protein sequences shown. For some assays here: Weaker means in comparison with the reference protein, sequence or condition of that experiment.

For “GCCGCCGCCCTCCCACGCGCTGCCGGGCC (double strand) [methylated BEND3 bait]”, the binding result with BEND3 (Homo sapiens) (setting [1]) and with BANP (Homo sapiens) (setting [1]) was “no binding” each time.

As for “GCCGCCGCCCTTCGGCAAGTCCTGCCGGGCC (double strand) [CGCG negative control bait]”, the binding result in the data set with BEND3 (Homo sapiens) (setting [2]) and with BANP (Homo sapiens) (setting [2]) was “no binding” in each case.

Turning to “GCCGCCGCCCTTCTCGCGAGACTGCCGGGCC (double strand) [methylated CGCG bait]”, the binding result with BEND3 (Homo sapiens) (setting [3]) is recorded as “binds more weakly”; with BANP (Homo sapiens) (setting [3]), “no binding”.

In the case of “GCCGCCGCCCTTCTCGCGAGACTGCCGGGCC (double strand) [CGCG bait]”, the binding result in the data set with BEND3 (Homo sapiens) (protein in an extract) is listed as “binds more weakly”.

As for “GCCGCCGCCCTCCCACGCGCTGCCGGGCC (double strand) [BEND3 bait]”, the binding result with BANP (Homo sapiens) (protein in an extract) is “no binding”.

As to “GCCGCCGCCCTGCAGCCCCCTGCCGGGCC (double strand) [BEND3 negative control bait]”, the binding result with BEND3 (Homo sapiens) (setting [4]) and in the data set with BANP (Homo sapiens) (setting [4]) was “no binding” in each case.

For “GAGAGAAAATAAAACTGGCT (double strand) [SP/KLF negative control bait]”, the binding result with SP1 (Homo sapiens) is on record as “no binding”.
